Test results published in patent publication US20230172950A1 (priority 2020, published 2023).
For at least one compound, name, drawing or mass did not settle the structure.

Legend:
Whole Blood = assay: Ex vivo whole blood incubation (Study 6), immune cell counts; format: cell-based
Description: (§1) The profound in vivo activity that we observe in naïve mice and in cancer models must be mediated through the mobilized supercharged Natural Killer T cells, T cells and dendritic cells after AVM0703 HED 6 mg/kg and higher.

ICAM3 = target: T1, ICAM3 (Homo sapiens, UniProt P32942); conditions: in vitro; cited from earlier work
T1 sequence (P32942 30-547): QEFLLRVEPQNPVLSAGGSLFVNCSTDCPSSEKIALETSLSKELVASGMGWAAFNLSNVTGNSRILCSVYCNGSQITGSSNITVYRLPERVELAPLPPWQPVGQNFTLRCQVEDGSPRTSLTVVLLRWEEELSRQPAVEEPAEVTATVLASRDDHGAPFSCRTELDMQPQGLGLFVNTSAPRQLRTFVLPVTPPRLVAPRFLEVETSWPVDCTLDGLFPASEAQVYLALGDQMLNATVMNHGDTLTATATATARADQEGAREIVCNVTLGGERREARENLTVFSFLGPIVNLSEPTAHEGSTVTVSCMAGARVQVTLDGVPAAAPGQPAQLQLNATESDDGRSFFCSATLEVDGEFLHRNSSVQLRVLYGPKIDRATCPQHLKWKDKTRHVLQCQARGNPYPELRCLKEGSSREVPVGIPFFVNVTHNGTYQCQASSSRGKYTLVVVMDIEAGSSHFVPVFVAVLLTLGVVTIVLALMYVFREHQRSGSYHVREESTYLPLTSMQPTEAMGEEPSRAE

[1] = test system: ICAM3 expression on eosinophils; conditions: 100 pM to 1 μM; cited from earlier work
[2] = test system: lymphocytes, monocytes, NKT cells, T cells, dendritic cells
Splenocytes = assay: Ex vivo splenocyte incubation (Study 24), viability by flow cytometry; format: cell-based; conditions: after 4 hours
Description: as §1
Splenocytes were cultured for 16 hours prior to assay execution.

[3] = test system: peripheral blood T and B cells; conditions: cited from earlier work
[4] = test system: peripheral blood T and B lymphocytes; conditions: single oral 0.24 mg/kg dose; cited from earlier work
[5] = test system: SARS-CoV-2 infection / COVID-19; conditions: Horby et al, 2021; cited from earlier work
[6] = 50 μM, whole blood, 16 hr, vs 1% DMSO control

| Structure (SMILES) | killing activity on lymphocytes (Whole Blood; 50 μM alone in whole blood) | neutrophils (Whole Blood; [6]) | numbers of lymphocytes, monocytes, eosinophils, basophils (Whole Blood; [6]) | lymphocyte-killing activity (Whole Blood; 500 μM alone in whole blood) | numbers of lymphocytes, monocytes, eosinophils, basophils (Whole Blood; 500 μM, whole blood, 16 hr, vs 1% DMSO control) | ICAM3 cleavage from cells (ICAM3) | ICAM3 expression on eosinophils [1] | ablation of lymphocytes, monocytes, some neutrophils and cancer cells ([2]; 6 hours after dosing) | induction of CD3-very-high T cell and CD11b-very-high dendritic cells ([2]; HED of 18 mg/kg and higher) | splenocyte cell death / viability (Splenocytes; above 100 μM) | splenocyte cell death / viability (Splenocytes; concentrations lower than 100 μM) | acute oral dose necessary to reduce peripheral blood T and B cells ([3]; 24-48 hours after administration) | return to baseline levels ([3]; after dosing, acute oral 3 mg/kg or greater) | normal levels by [4] | recovery beginning [4] | suppression of peripheral blood T and B lymphocytes [4] | mortality in severely ill COVID-19 patients [5] |
| --- | --- | --- | --- | --- | --- | --- | --- | --- | --- | --- | --- | --- | --- | --- | --- | --- | --- |
| CC#C[C@]1(O)CC[C@H]2[C@@H]3CCC4=CC(=O)CCC4=C3[C@@H](c3ccc(N(C)C)cc3)C[C@@]21C [RU486] | no killing activity | non-significant increase | no change in numbers |  |  |  |  |  |  |  |  |  |  |  |  |  |  |
| C[C@@H]1C[C@H]2[C@@H]3CCC4=CC(=O)C=C[C@]4(C)[C@@]3(F)[C@@H](O)C[C@]2(C)[C@@]1(O)C(=O)CO [dexamethasone base, dexamethasone] |  |  |  | does not induce | no change in numbers | cleaves ICAM3 | decreased | Almost complete ablation | induced | does not trigger cell death | direct killing activity | ≥ 3 mg/kg | 5 to 14 days | 24 h | 12 h | 80% | reduce mortality |
